Data on 4 substances can be found in article PMC7617804.

Protein sequences, listed by entry. Tags and fused reporters are not part of them. Lines headed by an entry give the natural chain unless they say otherwise; changes in a name come on top. Chains listed by the source or under a name are the forms on record and can include a tag or linker. Residues count along the entry.
UniProt Q9P0J7: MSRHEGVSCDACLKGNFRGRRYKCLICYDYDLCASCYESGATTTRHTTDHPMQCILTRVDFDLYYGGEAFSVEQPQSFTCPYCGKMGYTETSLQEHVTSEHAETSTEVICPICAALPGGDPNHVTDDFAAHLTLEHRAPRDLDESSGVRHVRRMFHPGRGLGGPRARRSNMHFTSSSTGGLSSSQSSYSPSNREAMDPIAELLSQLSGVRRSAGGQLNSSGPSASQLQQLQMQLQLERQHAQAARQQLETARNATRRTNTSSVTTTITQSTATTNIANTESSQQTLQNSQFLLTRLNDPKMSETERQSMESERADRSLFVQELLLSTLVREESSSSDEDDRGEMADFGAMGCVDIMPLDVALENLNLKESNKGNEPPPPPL
KCMF1ΔCTD-TEV-3xFLAG (lacking aa 299-381): residues 1-298 of Q9P0J7
KCMF1ΔNTD-TEV-3xFLAG (lacking aa 1-139): residues 140-381 of Q9P0J7
KCMF1ΔMLD-TEV-3xFLAG (lacking aa 196-263) (Q9P0J7, form named): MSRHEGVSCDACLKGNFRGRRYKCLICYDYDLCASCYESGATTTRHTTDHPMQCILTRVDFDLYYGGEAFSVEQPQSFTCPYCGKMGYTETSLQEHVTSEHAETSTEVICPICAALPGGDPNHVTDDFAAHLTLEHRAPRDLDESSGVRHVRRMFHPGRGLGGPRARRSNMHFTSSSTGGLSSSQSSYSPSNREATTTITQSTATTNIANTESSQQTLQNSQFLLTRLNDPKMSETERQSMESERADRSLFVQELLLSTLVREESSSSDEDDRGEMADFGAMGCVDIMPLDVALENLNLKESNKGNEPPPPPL
UniProt P28072: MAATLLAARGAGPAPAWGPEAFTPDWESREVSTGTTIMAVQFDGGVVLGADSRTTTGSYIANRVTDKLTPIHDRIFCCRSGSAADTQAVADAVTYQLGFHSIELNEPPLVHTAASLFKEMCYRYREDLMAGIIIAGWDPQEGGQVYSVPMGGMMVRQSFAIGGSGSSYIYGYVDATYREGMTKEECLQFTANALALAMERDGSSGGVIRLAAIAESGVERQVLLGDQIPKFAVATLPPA
UniProt P28070: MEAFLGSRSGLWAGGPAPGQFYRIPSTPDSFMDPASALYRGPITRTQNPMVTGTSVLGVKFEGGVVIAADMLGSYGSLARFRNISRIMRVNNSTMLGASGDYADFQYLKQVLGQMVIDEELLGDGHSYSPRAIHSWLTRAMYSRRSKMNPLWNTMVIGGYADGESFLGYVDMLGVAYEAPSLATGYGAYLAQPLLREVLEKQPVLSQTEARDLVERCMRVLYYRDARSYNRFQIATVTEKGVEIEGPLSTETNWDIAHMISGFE
UniProt P49721: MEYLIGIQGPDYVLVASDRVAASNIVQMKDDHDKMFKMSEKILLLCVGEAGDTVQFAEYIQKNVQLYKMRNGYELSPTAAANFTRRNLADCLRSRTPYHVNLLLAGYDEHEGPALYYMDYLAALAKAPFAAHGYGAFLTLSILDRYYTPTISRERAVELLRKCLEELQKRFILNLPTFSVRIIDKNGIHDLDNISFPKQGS
endogenous UBR4 of rabbit reticulocyte lysate (G1SCY3, form named): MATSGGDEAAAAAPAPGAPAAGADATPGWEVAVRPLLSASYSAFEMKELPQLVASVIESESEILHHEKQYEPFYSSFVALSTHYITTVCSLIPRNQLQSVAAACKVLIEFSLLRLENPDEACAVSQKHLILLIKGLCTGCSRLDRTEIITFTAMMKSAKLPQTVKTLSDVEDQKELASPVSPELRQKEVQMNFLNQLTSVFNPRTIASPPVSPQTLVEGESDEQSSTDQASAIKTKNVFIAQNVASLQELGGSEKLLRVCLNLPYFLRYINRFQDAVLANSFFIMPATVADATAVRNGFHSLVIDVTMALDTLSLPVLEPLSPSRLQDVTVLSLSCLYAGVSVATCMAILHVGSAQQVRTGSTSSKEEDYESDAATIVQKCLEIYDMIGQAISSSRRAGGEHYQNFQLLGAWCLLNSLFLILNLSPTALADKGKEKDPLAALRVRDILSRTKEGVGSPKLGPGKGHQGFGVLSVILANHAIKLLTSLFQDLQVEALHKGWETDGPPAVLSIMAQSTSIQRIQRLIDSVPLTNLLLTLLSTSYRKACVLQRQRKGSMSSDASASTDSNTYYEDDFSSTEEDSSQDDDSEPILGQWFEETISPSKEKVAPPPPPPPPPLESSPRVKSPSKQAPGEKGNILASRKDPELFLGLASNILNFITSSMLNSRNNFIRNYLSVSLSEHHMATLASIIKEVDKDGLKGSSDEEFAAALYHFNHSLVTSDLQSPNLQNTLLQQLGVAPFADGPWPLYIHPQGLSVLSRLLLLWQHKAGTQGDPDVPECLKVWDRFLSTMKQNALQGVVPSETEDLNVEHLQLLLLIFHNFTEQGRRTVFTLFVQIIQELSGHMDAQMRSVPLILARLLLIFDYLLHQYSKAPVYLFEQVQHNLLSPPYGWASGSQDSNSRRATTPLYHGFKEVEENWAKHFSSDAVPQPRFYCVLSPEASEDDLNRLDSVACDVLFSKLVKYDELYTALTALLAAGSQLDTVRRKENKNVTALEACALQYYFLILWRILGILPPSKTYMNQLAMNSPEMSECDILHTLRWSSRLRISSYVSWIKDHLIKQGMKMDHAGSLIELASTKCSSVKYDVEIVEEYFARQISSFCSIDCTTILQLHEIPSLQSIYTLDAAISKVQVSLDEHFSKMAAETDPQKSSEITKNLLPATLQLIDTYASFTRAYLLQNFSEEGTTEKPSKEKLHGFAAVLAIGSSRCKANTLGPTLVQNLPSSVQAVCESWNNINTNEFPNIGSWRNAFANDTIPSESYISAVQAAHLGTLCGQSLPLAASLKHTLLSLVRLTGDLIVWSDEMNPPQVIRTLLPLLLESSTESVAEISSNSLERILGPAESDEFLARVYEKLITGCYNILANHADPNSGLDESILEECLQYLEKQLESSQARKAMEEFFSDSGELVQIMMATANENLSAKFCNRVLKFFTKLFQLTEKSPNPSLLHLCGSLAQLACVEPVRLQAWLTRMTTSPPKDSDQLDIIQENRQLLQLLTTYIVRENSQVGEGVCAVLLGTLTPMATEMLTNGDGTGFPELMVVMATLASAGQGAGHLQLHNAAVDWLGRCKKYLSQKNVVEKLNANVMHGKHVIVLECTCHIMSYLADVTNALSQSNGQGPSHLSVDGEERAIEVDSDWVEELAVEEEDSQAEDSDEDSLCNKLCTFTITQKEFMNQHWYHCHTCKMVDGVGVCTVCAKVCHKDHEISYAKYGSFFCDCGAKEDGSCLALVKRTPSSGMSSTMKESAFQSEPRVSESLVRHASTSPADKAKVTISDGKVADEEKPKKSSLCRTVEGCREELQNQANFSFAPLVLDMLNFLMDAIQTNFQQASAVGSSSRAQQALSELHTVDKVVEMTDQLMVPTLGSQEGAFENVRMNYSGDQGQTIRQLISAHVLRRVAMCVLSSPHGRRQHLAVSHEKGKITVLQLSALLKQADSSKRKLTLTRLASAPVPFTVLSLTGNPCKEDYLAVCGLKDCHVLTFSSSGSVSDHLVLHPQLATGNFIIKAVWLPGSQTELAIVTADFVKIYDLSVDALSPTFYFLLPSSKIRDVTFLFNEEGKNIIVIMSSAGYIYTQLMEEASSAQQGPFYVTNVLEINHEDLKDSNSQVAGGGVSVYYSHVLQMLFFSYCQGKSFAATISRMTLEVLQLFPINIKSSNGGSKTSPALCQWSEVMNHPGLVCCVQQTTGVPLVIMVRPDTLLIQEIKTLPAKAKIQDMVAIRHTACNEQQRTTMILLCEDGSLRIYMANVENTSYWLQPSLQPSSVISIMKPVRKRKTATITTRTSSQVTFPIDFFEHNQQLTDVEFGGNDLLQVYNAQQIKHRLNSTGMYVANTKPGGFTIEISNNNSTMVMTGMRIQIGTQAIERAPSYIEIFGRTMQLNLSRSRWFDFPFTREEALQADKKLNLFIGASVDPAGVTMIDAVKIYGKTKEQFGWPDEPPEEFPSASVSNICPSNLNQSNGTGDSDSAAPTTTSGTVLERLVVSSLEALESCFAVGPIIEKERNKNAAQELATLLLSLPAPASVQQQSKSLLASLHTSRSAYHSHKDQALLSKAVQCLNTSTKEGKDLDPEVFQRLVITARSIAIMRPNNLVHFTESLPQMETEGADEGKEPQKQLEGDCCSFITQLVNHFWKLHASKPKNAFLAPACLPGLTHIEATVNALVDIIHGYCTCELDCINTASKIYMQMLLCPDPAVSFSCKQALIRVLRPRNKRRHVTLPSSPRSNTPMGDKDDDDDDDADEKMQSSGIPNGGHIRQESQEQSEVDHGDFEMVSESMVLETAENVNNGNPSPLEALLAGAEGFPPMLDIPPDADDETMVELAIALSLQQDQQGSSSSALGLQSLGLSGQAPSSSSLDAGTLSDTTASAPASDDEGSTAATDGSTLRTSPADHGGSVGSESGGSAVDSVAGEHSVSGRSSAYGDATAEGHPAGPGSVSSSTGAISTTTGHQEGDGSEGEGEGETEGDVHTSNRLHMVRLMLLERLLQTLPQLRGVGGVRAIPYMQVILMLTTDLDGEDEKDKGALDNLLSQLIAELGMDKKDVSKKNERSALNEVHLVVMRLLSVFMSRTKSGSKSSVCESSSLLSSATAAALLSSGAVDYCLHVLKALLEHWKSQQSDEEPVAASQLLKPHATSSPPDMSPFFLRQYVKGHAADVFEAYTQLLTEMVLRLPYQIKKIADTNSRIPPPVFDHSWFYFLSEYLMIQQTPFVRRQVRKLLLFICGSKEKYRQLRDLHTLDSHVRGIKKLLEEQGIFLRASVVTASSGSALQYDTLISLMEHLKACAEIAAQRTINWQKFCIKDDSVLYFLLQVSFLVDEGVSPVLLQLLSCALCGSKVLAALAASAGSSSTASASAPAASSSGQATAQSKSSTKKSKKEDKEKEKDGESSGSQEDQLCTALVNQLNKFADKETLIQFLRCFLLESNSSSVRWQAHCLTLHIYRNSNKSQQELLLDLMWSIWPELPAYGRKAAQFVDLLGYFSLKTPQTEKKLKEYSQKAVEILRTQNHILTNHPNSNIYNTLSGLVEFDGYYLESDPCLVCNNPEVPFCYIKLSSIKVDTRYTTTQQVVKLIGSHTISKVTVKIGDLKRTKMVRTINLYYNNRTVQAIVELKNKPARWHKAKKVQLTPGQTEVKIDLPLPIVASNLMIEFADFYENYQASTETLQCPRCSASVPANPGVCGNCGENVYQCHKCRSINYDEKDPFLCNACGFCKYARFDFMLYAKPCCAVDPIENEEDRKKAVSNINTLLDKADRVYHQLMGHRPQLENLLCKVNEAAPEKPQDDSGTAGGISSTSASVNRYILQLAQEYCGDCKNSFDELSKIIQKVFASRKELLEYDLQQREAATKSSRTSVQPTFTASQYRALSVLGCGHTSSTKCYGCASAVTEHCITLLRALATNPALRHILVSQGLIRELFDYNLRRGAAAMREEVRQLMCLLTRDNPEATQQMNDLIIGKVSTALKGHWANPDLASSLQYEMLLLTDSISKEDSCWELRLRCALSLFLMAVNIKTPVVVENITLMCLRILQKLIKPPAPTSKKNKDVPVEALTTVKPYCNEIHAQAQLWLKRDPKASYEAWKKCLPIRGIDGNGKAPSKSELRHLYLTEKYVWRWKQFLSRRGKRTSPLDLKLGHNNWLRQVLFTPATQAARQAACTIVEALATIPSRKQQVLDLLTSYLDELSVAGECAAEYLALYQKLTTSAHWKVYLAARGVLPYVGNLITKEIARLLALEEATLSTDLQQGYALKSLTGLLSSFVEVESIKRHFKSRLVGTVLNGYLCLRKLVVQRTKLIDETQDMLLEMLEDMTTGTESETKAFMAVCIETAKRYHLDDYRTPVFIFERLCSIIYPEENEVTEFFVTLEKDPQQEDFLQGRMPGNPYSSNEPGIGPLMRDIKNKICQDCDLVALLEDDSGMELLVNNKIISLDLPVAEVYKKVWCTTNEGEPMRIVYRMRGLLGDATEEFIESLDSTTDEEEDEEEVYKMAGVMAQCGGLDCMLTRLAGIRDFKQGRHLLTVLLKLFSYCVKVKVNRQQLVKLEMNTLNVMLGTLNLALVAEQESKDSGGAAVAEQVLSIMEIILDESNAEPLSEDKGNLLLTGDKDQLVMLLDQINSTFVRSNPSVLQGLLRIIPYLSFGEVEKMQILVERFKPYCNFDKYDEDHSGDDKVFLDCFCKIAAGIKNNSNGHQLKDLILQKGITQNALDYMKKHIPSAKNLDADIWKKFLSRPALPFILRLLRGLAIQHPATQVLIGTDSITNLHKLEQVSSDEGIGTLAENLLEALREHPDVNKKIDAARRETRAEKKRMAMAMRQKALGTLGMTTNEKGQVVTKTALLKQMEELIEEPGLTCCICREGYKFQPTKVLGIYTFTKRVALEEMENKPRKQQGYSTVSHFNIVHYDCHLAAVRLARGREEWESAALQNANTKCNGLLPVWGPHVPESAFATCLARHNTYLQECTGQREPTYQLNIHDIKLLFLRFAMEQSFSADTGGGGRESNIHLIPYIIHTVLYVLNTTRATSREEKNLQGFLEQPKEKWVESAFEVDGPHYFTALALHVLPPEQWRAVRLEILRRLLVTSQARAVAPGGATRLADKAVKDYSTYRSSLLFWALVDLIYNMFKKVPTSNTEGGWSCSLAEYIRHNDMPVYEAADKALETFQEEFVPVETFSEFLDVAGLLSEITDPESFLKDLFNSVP

These are yes or no findings as the source states them, for the method shown. In cells and extracts the contact can be indirect. Some entries that bind do so weakly or less than the wild type. For some assays here: Tags and fused reporters may be left off the sequences shown.

One test addresses T1, CCT4-TEV-3xFLAG (UniProt P50991).
T1 sequence: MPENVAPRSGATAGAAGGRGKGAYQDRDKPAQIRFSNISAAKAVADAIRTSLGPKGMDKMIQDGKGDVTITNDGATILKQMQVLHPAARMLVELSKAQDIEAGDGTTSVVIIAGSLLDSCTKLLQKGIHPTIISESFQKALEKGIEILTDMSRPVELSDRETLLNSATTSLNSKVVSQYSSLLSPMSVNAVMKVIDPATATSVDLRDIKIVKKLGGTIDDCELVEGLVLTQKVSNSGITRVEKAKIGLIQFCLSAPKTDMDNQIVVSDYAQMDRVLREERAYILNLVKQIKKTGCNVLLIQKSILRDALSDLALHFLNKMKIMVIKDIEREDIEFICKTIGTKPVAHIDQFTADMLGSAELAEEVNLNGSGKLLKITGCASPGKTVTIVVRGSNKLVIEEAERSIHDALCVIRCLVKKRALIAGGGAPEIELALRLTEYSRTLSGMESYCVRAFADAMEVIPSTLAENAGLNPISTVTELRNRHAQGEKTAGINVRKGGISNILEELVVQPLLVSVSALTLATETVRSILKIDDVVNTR
Briefly: co-IP; 3xFLAG-tagged PSMB or CCT subunits overexpressed in HEK293T cells (CCT4-3xFLAG also after control, HERC2, KCMF1 or UBR4 siRNA); digitonin lysate in native IP buffer; anti-FLAG M2 affinity gel, 4°C; immunoblot for endogenous proteins.

The target in the next test is CCT8-TEV-3xFLAG (UniProt P50990). Described as above.
Test [1] concerns the target endogenous KCMF1 of human cultured cells (human (endogenous in HEK293T and Flp-In T-REx 293)) (UniProt Q9P0J7). Briefly: co-sedimentation; digitonin cytosolic lysates of Flp-in TREx cells on a 5-25% sucrose gradient in PSB, 55000 rpm, 45 min, 4°C; fractions immunoblotted.
The target of test [2] is KCMF1ΔNTD-TEV-3xFLAG (lacking aa 1-139) (UniProt Q9P0J7). Briefly: co-IP; KCMF1-3xFLAG constructs expressed in KCMF1 KO TREx 293 cells; digitonin lysate in native IP buffer (50 mM HEPES-KOH, 100 mM KAc, 2 mM Mg(Ac)2, 0.01% digitonin); anti-FLAG M2 affinity gel, 4°C; immunoblot.
Test [3] deals with KCMF1ΔMLD-TEV-3xFLAG (lacking aa 196-263) (UniProt Q9P0J7). Described as above.
A further test concerns the target KCMF1-TEV-3xFLAG (UniProt Q9P0J7). The description is as above.
Test [4] deals with KCMF1ΔCTD-TEV-3xFLAG (lacking aa 299-381) (UniProt Q9P0J7). The test is described as above.
For the next test, the target named is PSMB6-3xFLAG (UniProt P28072). The experiment in a line: co-IP; 3xFLAG-tagged proteins translated in rabbit reticulocyte lysate, diluted in PSB, anti-FLAG M2 affinity gel 60 min at 4°C under native conditions; immunoblot for endogenous proteins of the lysate.
The target of the next test is PSMB4-3xFLAG (UniProt P28070). The description is as above.
A further test concerns the target PSMB3-3xFLAG (UniProt P49720). The test is described as above.
The target of a further test is PSMB5-3xFLAG (UniProt P28074). The test is described as above.
The next test deals with PSMB2-3xFLAG (UniProt P49721). Described as above.
In the next test the target is PSMB7-3xFLAG (UniProt Q99436). Described as above.
Another test deals with PSMB1-3xFLAG (UniProt P20618). The test is described as above.

Turning to “endogenous HERC2 of HEK293T cells (from UniProt O95714 1-4834)”, the binding entry with CCT4-TEV-3xFLAG was “binds”.
For the substance “endogenous KCMF1 of human cultured cells (from UniProt Q9P0J7 1-381)”, the binding result is recorded as “binds” with CCT4-TEV-3xFLAG and “binds weakly” in the test with CCT8-TEV-3xFLAG.
For the substance “endogenous UBR4 of human cultured cells (from UniProt Q5T4S7 1-5183)”, the binding entry in [1] is “binds”; with CCT4-TEV-3xFLAG it was “binds”; in the test with CCT8-TEV-3xFLAG, “binds weakly”; in [2], “binds”; in [3], “binds”; in the test with KCMF1-TEV-3xFLAG it was “binds”. Besides, the binding entry in test [4] is “binds”.
For the substance “endogenous UBR4 of rabbit reticulocyte lysate (from UniProt G1SCY3 1-5180)”, the binding entry with PSMB6-3xFLAG, with PSMB4-3xFLAG, with PSMB3-3xFLAG, with PSMB5-3xFLAG, with PSMB2-3xFLAG and with PSMB7-3xFLAG was “binds” in each case. In the test with PSMB1-3xFLAG, the binding result was “binds”.
